Data as given in article PMC12891039.
These are yes or no findings as the source states them, for the method shown. Binding seen in cells or lysates may run through a third protein. Some binding calls cover weakened binding; strength is not graded here.

The chains behind the UniProt entries cited, without tags or fusion partners. Residues count along the entry.
UniProt Q9DBY1: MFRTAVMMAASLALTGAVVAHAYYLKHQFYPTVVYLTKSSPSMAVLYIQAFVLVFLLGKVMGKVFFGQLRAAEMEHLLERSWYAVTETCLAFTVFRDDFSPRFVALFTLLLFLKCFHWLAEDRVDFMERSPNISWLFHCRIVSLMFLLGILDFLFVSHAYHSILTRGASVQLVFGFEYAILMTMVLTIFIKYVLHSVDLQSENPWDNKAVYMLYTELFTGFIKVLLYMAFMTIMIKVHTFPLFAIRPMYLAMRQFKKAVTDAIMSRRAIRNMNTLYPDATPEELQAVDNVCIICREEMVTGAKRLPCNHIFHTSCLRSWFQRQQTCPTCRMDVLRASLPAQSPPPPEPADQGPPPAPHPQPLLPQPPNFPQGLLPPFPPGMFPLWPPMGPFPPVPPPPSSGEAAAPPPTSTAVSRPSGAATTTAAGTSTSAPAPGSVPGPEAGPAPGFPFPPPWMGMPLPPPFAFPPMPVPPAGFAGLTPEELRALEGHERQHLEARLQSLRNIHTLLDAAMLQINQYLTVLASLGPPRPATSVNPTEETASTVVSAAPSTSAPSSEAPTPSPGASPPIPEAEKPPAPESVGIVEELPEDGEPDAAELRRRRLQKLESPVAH
UniProt P20029, residues 20-655: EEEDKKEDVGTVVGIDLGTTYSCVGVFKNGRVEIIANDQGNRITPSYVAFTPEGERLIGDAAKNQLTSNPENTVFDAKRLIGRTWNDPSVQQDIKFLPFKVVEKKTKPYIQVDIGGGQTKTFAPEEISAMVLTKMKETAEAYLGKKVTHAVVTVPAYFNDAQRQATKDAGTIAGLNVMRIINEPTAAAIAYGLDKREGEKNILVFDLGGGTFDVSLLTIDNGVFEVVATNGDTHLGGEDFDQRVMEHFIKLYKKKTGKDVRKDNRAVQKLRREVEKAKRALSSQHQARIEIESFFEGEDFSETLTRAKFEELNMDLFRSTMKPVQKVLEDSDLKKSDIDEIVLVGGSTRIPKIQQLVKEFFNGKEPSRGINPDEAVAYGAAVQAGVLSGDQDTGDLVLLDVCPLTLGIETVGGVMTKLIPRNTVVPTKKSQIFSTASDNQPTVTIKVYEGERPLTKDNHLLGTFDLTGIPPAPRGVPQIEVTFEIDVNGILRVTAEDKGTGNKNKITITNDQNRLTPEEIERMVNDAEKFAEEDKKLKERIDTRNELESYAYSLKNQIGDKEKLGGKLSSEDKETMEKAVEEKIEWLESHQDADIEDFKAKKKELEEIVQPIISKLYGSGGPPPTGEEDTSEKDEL

Experiments:
[1] = target: SEL1L (mouse, wild type) (mouse (endogenous in MEFs and P0 liver)) (UniProt Q9Z2G6); assay: co-IP; IP of endogenous SEL1L from P0 mouse liver lysates (WT, Sel1L^S658P, Sel1L^L709P); same lysis buffer; DERL2 eluted with 0.1 M glycine pH 2.5; immunoblot with quantification
[2] = target: SEL1L (mouse, wild type) (mouse (endogenous in MEFs and P0 liver)) (UniProt Q9Z2G6); assay: co-IP; IP of endogenous SEL1L (1 ug anti-SEL1L, Protein A agarose, overnight 4 C) from MEF lysates (WT, Sel1L^S658P, Sel1L^L709P, Sel1L^P699T, Sel1L^ERCre KO); 150 mM NaCl, 25 mM Tris-HCl pH 7.5, 0.2% NP-40, 0.1% Triton X-100; immunoblot, prey band normalised to bait
[3] = target: T1, SEL1L P699T (mouse knock-in, P695T in mouse numbering) (mouse (endogenous in MEFs)) (UniProt Q9Z2G6); assay: as above
T1 sequence: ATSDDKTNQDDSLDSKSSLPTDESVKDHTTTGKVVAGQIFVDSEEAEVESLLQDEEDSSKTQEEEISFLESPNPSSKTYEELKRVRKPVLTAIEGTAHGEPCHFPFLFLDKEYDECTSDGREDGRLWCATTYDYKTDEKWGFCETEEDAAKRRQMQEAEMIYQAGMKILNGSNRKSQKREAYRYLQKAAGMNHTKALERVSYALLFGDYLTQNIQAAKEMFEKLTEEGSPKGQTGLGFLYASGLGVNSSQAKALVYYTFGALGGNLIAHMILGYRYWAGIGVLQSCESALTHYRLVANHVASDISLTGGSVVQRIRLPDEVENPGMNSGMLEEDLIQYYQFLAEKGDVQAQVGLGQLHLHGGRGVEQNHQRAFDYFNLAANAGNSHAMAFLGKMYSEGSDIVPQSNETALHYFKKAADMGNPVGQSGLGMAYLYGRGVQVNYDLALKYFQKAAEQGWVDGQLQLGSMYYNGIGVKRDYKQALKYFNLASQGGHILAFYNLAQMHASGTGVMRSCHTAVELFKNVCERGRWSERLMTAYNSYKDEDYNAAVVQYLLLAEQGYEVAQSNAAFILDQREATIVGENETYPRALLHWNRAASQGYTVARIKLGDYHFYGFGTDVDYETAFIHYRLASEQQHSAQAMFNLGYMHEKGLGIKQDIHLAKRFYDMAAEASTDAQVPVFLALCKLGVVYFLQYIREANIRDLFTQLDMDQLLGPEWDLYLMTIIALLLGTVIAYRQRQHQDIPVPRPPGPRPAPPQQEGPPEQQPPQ

[4] = target: HRD1 (mouse) (mouse (endogenous in MEFs and P0 liver)) (UniProt Q9DBY1); assay: co-IP; reciprocal IP of endogenous HRD1 (anti-HRD1, Protein A agarose) from MEF lysates; same lysis buffer; immunoblot
[5] = target: SEL1L L709P (mouse knock-in, L705P in mouse numbering) (mouse (endogenous in MEFs and P0 liver)) (UniProt Q9Z2G6); assay: co-IP; IP of endogenous SEL1L from P0 mouse liver lysates (WT, Sel1L^S658P, Sel1L^L709P); same lysis buffer; DERL2 eluted with 0.1 M glycine pH 2.5; immunoblot with quantification
[6] = target: SEL1L L709P (mouse knock-in, L705P in mouse numbering) (mouse (endogenous in MEFs and P0 liver)) (UniProt Q9Z2G6); assay: co-IP; IP of endogenous SEL1L (1 ug anti-SEL1L, Protein A agarose, overnight 4 C) from MEF lysates (WT, Sel1L^S658P, Sel1L^L709P, Sel1L^P699T, Sel1L^ERCre KO); 150 mM NaCl, 25 mM Tris-HCl pH 7.5, 0.2% NP-40, 0.1% Triton X-100; immunoblot, prey band normalised to bait
[7] = target: SEL1L (human, wild type) (human (endogenous in HEK293T)) (UniProt Q9UBV2); assay: co-IP; IP of endogenous SEL1L from lysates of WT, SEL1L^L709P KI and KO HEK293T cells; immunoblot, quantification normalised to SEL1L
[8] = target: T2, SEL1L L709P (human, knock-in HEK293T) (human (endogenous in HEK293T)) (UniProt Q9UBV2); assay: as above
T2 sequence: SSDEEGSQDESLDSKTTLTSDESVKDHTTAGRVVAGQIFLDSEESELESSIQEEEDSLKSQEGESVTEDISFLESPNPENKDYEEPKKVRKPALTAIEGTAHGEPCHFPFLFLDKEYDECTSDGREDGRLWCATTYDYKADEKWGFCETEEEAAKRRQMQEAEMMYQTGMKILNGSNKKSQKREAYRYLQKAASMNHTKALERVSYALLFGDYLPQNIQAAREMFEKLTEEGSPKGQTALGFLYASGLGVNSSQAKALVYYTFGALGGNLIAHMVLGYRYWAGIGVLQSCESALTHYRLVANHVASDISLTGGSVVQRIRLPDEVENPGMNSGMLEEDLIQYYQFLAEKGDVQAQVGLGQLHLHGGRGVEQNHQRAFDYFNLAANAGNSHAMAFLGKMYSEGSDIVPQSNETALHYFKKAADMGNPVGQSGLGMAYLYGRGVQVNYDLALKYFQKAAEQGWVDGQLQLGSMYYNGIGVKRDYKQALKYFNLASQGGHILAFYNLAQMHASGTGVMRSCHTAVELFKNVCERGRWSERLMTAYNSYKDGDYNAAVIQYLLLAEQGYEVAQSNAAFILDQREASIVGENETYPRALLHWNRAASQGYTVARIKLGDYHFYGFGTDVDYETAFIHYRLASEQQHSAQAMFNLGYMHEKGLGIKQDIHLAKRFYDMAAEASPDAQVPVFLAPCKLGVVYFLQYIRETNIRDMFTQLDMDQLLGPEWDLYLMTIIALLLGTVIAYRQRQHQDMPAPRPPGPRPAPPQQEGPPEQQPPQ

“HRD1 (mouse) (from UniProt Q9DBY1 1-612) (enzyme)” was tested, and the binding [1] was “binds”, the binding [2] was “binds” and the binding [3] was “binds”.

With “SEL1L (mouse, wild type) (from UniProt Q9Z2G6 22-790)” the binding [4] was “binds”.

For “BiP (mouse) (from UniProt P20029 20-655)”, the binding [1] was “binds” and the binding [5] was “binds”.

B1: UBE2J1 (mouse) (enzyme, UniProt Q9JJZ4 1-318)
chain: METRYNLKSPAVKRLMKEAAELKDPTDHYHAQPLEDNLFEWHFTVRGPPDSDFDGGVYHGRIVLPPEYPMKPPSIILLTANGRFEVGKKICLSISGHHPETWQPSWSIRTALLAIIGFMPTKGEGAIGSLDYTPEERRALAKKSQDFCCEGCGSAMKDVLLPLKSGSGSSQADQEAKELARQISFKAEVNSSGKTIAESDLNQCFSLNDSQDDLPTTFQGATASTSYGAQNPSGAPLPQPTQPAPKNTSMSPRQRRAQQQSQRRPSTSPDVLQGQPPRAHHTEHGGSAMLIIILTLALAALIFRRIYLANEYIFDFEL
With B1 the binding [2] was “binds”, the binding [3] was “binds” and the binding [6] was “binds”.

B2: DERL2 (mouse) (protein, UniProt Q8BNI4 1-239)
chain: MAYQSLRLEYLQIPPVSRAYTTACVLTTAAVQLELITPFQLYFNPELIFKHFQIWRLITNFLFFGPVGFNFLFNMIFLYRYCRMLEEGSFRGRTADFVFMFLFGGFLMTLFGLFVSLVFLGQAFTIMLVYVWSRRNPYVRMNFFGLLNFQAPFLPWVLMGFSLLLGNSIIVDLLGIAVGHIYFFLEDIFPNQPGGIRILKTPSILRTIFDTPDEDPNYNPLPEERPGGFAWGEGQRLGG
B2 was tested, and the binding [1] was “binds”.

B3: FAM8A1 (human) (protein, UniProt Q9UBU6 1-413)
chain: MAEGPEEARGHPPGQDDGGGDHEPVPSLRGPPTTAVPCPRDDPQAEPQAPGRPTAPGLAAAAAADKLEPPRELRKRGEAASGSGAELQEQAGCEAPEAAAPRERPARLSAREYSRQVHEWLWQSYCGYLTWHSGLAAFPAYCSPQPSPQSFPSGGAAVPQAAAPPPPQLGYYNPFYFLSPGAAGPDPRTAAGISTPAPVAGLGPRAPHVQASVRATPVTRVGSAAPSRSPSETGRQAGREYVIPSLAHRFMAEMVDFFILFFIKATIVLSIMHLSGIKDISKFAMHYIIEEIDEDTSMEDLQKMMVVALIYRLLVCFYEIICIWGAGGATPGKFLLGLRVVTCDTSVLIAPSRVLVIPSSNVSITTSTIRALIKNFSIASFFPAFITLLFFQHNRTAYDIVAGTIVVKRNGVR
With B3 the binding [7] was “binds”.

B4: DERL2 (human) (protein, UniProt Q9GZP9 1-239)
chain: MAYQSLRLEYLQIPPVSRAYTTACVLTTAAVQLELITPFQLYFNPELIFKHFQIWRLITNFLFFGPVGFNFLFNMIFLYRYCRMLEEGSFRGRTADFVFMFLFGGFLMTLFGLFVSLVFLGQAFTIMLVYVWSRRNPYVRMNFFGLLNFQAPFLPWVLMGFSLLLGNSIIVDLLGIAVGHIYFFLEDVFPNQPGGIRILKTPSILKAIFDTPDEDPNYNPLPEERPGGFAWGEGQRLGG
In the case of B4, the binding [7] is reported as “binds”.

B5: OS9 (human) (protein, UniProt Q13438 26-667)
chain: GGVGSLNLEELSEMRYGIEILPLPVMGGQSQSSDVVIVSSKYKQRYECRLPAGAIHFQREREEETPAYQGPGIPELLSPMRDAPCLLKTKDWWTYEFCYGRHIQQYHMEDSEIKGEVLYLGYYQSAFDWDDETAKASKQHRLKRYHSQTYGNGSKCDLNGRPREAEVRFLCDEGAGISGDYIDRVDEPLSCSYVLTIRTPRLCPHPLLRPPPSAAPQAILCHPSLQPEEYMAYVQRQADSKQYGDKIIEELQDLGPQVWSETKSGVAPQKMAGASPTKDDSKDSDFWKMLNEPEDQAPGGEEVPAEEQDPSPEAADSASGAPNDFQNNVQVKVIRSPADLIRFIEELKGGTKKGKPNIGQEQPVDDAAEVPQREPEKERGDPERQREMEEEEDEDEDEDEDEDERQLLGEFEKELEGILLPSDRDRLRSEVKAGMERELENIIQETEKELDPDGLKKESERDRAMLALTSTLNKLIKRLEEKQSPELVKKHKKKRVVPKKPPPSPQPTEEDPEHRVRVRVTKLRLGGPNQDLTVLEMKRENPQLKQIEGLVKELLEREGLTAAGKIEIKIVRPWAEGTEEGARWLTDEDTRNLKEIFFNILVPGAEEAQKERQRQKELESNYRRVWGSPGGEGTGDLDEFDF
For B5, the binding [7] was “binds” and the binding [8] was “binds”.

B6: UBE2J1 (human) (enzyme, UniProt Q9Y385 1-318)
chain: METRYNLKSPAVKRLMKEAAELKDPTDHYHAQPLEDNLFEWHFTVRGPPDSDFDGGVYHGRIVLPPEYPMKPPSIILLTANGRFEVGKKICLSISGHHPETWQPSWSIRTALLAIIGFMPTKGEGAIGSLDYTPEERRALAKKSQDFCCEGCGSAMKDVLLPLKSGSDSSQADQEAKELARQISFKAEVNSSGKTISESDLNHSFSLTDLQDDIPTTFQGATASTSYGLQNSSAASFHQPTQPVAKNTSMSPRQRRAQQQSQRRLSTSPDVIQGHQPRDNHTDHGGSAVLIVILTLALAALIFRRIYLANEYIFDFEL
In the case of B6, the binding [7] is reported as “binds” and the binding [8] is reported as “binds”.
